Laboratory results from patent US20180320217A1, “METHODS FOR SAMPLING AND MEASURING ORAL LAVAGE PROTEINS” (The Procter & Gamble Company, priority 2017, published 2018).

Tested on: proteins in oral lavage
Experiment: Abundance of proteins in human oral lavage (SomaLogic), TABLE 1
Assay type: in vivo
Settings: for Means (Original Scale) High bleeder BL / Means (Original Scale) High bleeder W4 / Means (Original Scale) Low bleeder BL: abundance in oral lavage; for Means (Original Scale) High bleeder BL: high bleeders (gingivitis); for Means (Original Scale) High bleeder BL / Means (Original Scale) Low bleeder BL: baseline; for Means (Original Scale) High bleeder W4 / Fold Change High bleeder W4 vs High bleeder BL: high bleeders; for Means (Original Scale) High bleeder W4: week 4 of investigative products; for Means (Original Scale) Low bleeder BL: low bleeders (healthy); for Fold Change High bleeder BL vs Low bleeder BL / Fold Change High bleeder W4 vs High bleeder BL: oral lavage
[1] = high bleeders vs low bleeders at baseline
[2] = week 4 of investigative products vs baseline

Molecule | Means (Original Scale) High bleeder BL | Means (Original Scale) High bleeder W4 | Means (Original Scale) Low bleeder BL | Fold Change High bleeder BL vs Low bleeder BL [1] | Fold Change High bleeder W4 vs High bleeder BL [2] | Fold Change High bleeder W4 vs High bleeder BL (week 4 of treatment vs baseline) | Fold Change High bleeder BL vs Low bleeder BL (high vs low bleeders at baseline)
NAD-dependent protein deacetylase sirtuin-2 (protein, UniProt Q8IXJ6 2-389, looked up) NAD-dependent protein …: AEPDPSHPLETQAGKVQEAQDSDSDSEGGAAGGEADMDFLRNLFSQTLSLGSQKERLLDELTLEGVARYMQSERCRRVICLVGAGISTSAGIPDFRSPSTGLYDNLEKYHLPYPEAIFEISYFKKHPEPFFALAKELYPGQFKPTICHYFMRLLKDKGLLLRCYTQNIDTLERIAGLEQEDLVEAHGTFYTSHCVSASCRHEYPLSWMKEKIFSEVTPKCEDCQSLVKPDIVFFGESLPARFFSCMQSDFLKVDLLLVMGTSLQVQPFASLISKAPLSTPRLLINKEKAGQSDPFLGMIMGLGGGMDFDSKKAYRDVAWLGECDQGCLALAELLGWKKELEDLVRREHASIDAQSGAGVPNPSTSASPKKSPPPAKDEARTTEREKPQ | 7030 | 4631 | 3074 | 2.21 | 0.67 |  | 
NADPH--cytochrome P450 reductase (protein, UniProt P16435 2-677, looked up) NADPH--cytochrome P450 …: GDSHVDTSSTVSEAVAEEVSLFSMTDMILFSLIVGLLTYWFLFRKKKEEVPEFTKIQTLTSSVRESSFVEKMKKTGRNIIVFYGSQTGTAEEFANRLSKDAHRYGMRGMSADPEEYDLADLSSLPEIDNALVVFCMATYGEGDPTDNAQDFYDWLQETDVDLSGVKFAVFGLGNKTYEHFNAMGKYVDKRLEQLGAQRIFELGLGDDDGNLEEDFITWREQFWPAVCEHFGVEATGEESSIRQYELVVHTDIDAAKVYMGEMGRLKSYENQKPPFDAKNPFLAAVTTNRKLNQGTERHLMHLELDISDSKIRYESGDHVAVYPANDSALVNQLGKILGADLDVVMSLNNLDEESNKKHPFPCPTSYRTALTYYLDITNPPRTNVLYELAQYASEPSEQELLRKMASSSGEGKELYLSWVVEARRHILAILQDCPSLRPPIDHLCELLPRLQARYYSIASSSKVHPNSVHICAVVVEYETKAGRINKGVATNWLRAKEPAGENGGRALVPMFVRKSQFRLPFKATTPVIMVGPGTGVAPFIGFIQERAWLRQQGKEVGETLLYYGCRRSDEDYLYREELAQFHRDGALTQLNVAFSREQSHKVYVQHLLKQDREHLWKLIEGGAHIYVCGDARNMARDVQNTFYDIVAELGAMEHAQAVDYIKKLMTKGRYSLDVWS | 1621 | 1355 | 221 | 10.71 | 0.54 |  | 
Natural cytotoxicity triggering receptor 2 (protein, UniProt O95944 22-276, looked up) Natural cytotoxicity …: QSKAQVLQSVAGQTLTVRCQYPPTGSLYEKKGWCKEASALVCIRLVTSSKPRTMAWTSRFTIWDDPDAGFFTVTMTDLREEDSGHYWCRIYRPSDNSVSKSVRFYLVVSPASASTQTSWTPRDLVSSQTQTQSCVPPTAGARQAPESPSTIPVPSQPQNSTLRPGPAAPIALVPVFCGLLVAKSLVLSALLVWWGDIWWKTMMELRSLDTQKATCHLQQVTDLPWTSVSSPVEREILYHTVARTKISDDDDEHTL | 77 | 55 | 45 | 1.66 | 0.76 |  | 
Neurexophilin-1 (protein, UniProt P58417 22-271, looked up) Neurexophilin-1: ANLTNGGKSELLKSGSSKSTLKHIWTESSKDLSISRLLSQTFRGKENDTDLDLRYDTPEPYSEQDLWDWLRNSTDLQEPRPRAKRRPIVKTGKFKKMFGWGDFHSNIKTVKLNLLITGKIVDHGNGTFSVYFRHNSTGQGNVSVSLVPPTKIVEFDLAQQTVIDAKDSKSFNCRIEYEKVDKATKNTLCNYDPSKTCYQEQTQSHVSWLCSKPFKVICIYISFYSTDYKLVQKVCPDYNYHSDTPYFPSG | 377 | 224 | 135 | 2.43 | 0.66 |  | 
Neutrophil gelatinase-associated lipocalin (protein, UniProt P80188 21-198, looked up) Neutrophil …: QDSTSDLIPAPPLSKVPLQQNFQDNQFQGKWYVVGLAGNAILREDKDPQKMYATIYELKEDKSYNVTSVLFRKKKCDYWIRTFVPGCQPGEFTLGNIKSYPGLTSYLVRVVSTNYNQHAMVFFKKVSQNREYFKITLYGRTKELTSELKENFIRFSKSLGLPENHIVFPVPIDQCIDG | 290631 | 182049 | 209403 | 1.71 | 0.55 |  | 
Nidogen-1 (protein, UniProt P14543 29-1247, looked up) Nidogen-1: LSRQELFPFGPGQGDLELEDGDDFVSPALELSGALRFYDRSDIDAVYVTTNGIIATSEPPAKESHPGLFPPTFGAVAPFLADLDTTDGLGKVYYREDLSPSITQRAAECVHRGFPEISFQPSSAVVVTWESVAPYQGPSRDPDQKGKRNTFQAVLASSDSSSYAIFLYPEDGLQFHTTFSKKENNQVPAVVAFSQGSVGFLWKSNGAYNIFANDRESVENLAKSSNSGQQGVWVFEIGSPATTNGVVPADVILGTEDGAEYDDEDEDYDLATTRLGLEDVGTTPFSYKALRRGGADTYSVPSVLSPRRAATERPLGPPTERTRSFQLAVETFHQQHPQVIDVDEVEETGVVFSYNTDSRQTCANNRHQCSVHAECRDYATGFCCSCVAGYTGNGRQCVAEGSPQRVNGKVKGRIFVGSSQVPIVFENTDLHSYVVMNHGRSYTAISTIPETVGYSLLPLAPVGGIIGWMFAVEQDGFKNGFSITGGEFTRQAEVTFVGHPGNLVIKQRFSGIDEHGHLTIDTELEGRVPQIPFGSSVHIEPYTELYHYSTSVITSSSTREYTVTEPERDGASPSRIYTYQWRQTITFQECVHDDSRPALPSTQQLSVDSVFVLYNQEEKILRYALSNSIGPVREGSPDALQNPCYIGTHGCDTNAACRPGPRTQFTCECSIGFRGDGRTCYDIDECSEQPSVCGSHTICNNHPGTFRCECVEGYQFSDEGTCVAVVDQRPINYCETGLHNCDIPQRAQCIYTGGSSYTCSCLPGFSGDGQACQDVDECQPSRCHPDAFCYNTPGSFTCQCKPGYQGDGFRCVPGEVEKTRCQHEREHILGAAGATDPQRPIPPGLFVPECDAHGHYAPTQCHGSTGYCWCVDRDGREVEGTRTRPGMTPPCLSTVAPPIHQGPAVPTAVIPLPPGTHLLFAQTGKIERLPLEGNTMRKTEAKAFLHVPAKVIIGLAFDCVDKMVYWTDITEPSIGRASLHGGEPTTIIRQDLGSPEGIAVDHLGRNIFWTDSNLDRIEVAKLDGTQRRVLFETDLVNPRGIVTDSVRGNLYWTDWNRDNPKIETSYMDGTNRRILVQDDLGLPNGLTFDAFSSQLCWVDAGTNRAECLNPSQPSRRKALEGLQYPFAVTSYGKNLYFTDWKMNSVVALDLAISKETDAFQPHKQTRLYGITTALSQCPQGHNYCSVNNGGCTHLCLATPGSRTCRCPDNTLGVDCIEQK | 526 | 329 | 157 | 3.12 | 0.65 |  | 
NSFL1 cofactor p47 (protein, UniProt Q9UNZ2 1-370, looked up) NSFL1 cofactor p47: MAAERQEALREFVAVTGAEEDRARFFLESAGWDLQIALASFYEDGGDEDIVTISQATPSSVSRGTAPSDNRVTSFRDLIHDQDEDEEEEEGQRFYAGGSERSGQQIVGPPRKKSPNELVDDLFKGAKEHGAVAVERVTKSPGETSKPRPFAGGGYRLGAAPEEESAYVAGEKRQHSSQDVHVVLKLWKSGFSLDNGELRSYQDPSNAQFLESIRRGEVPAELRRLAHGGQVNLDMEDHRDEDFVKPKGAFKAFTGEGQKLGSTAPQVLSTSSPAQQAENEAKASSSILIDESEPTTNIQIRLADGGRLVQKFNHSHRISDIRLFIVDARPAMAATSFILMTTFPNKELADESQTLKEANLLNAVIVQRLT | 1799 | 924 | 570 | 3.16 | 0.57 |  | 
Nucleoside diphosphate kinase B (protein, UniProt P22392 1-152, looked up) Nucleoside diphosphate kinase …: MANLERTFIAIKPDGVQRGLVGEIIKRFEQKGFRLVAMKFLRASEEHLKQHYIDLKDRPFFPGLVKYMNSGPVVAMVWEGLNVVKTGRVMLGETNPADSKPGTIRGDFCIQVGRNIIHGSDSVKSAEKEISLWFKPEELVDYKSCAHDWVYE | 1205 | 913 | 342 | 6.98 | 0.76 |  | 
Osteomodulin (protein, UniProt Q99983 21-421, looked up) Osteomodulin: QYETYQWDEDYDQEPDDDYQTGFPFRQNVDYGVPFHQYTLGCVSECFCPTNFPSSMYCDNRKLKTIPNIPMHIQQLYLQFNEIEAVTANSFINATHLKEINLSHNKIKSQKIDYGVFAKLPNLLQLHLEHNNLEEFPFPLPKSLERLLLGYNEISKLQTNAMDGLVNLTMLDLCYNYLHDSLLKDKIFAKMEKLMQLNLCSNRLESMPPGLPSSLMYLSLENNSISSIPEKYFDKLPKLHTLRMSHNKLQDIPYNIFNLPNIVELSVGHNKLKQAFYIPRNLEHLYLQNNEIEKMNLTVMCPSIDPLHYHHLTYIRVDQNKLKEPISSYIFFCFPHIHTIYYGEQRSTNGQTIQLKTQVFRRFPDDDDESEDHDDPDNAHESPEQEGAEGHFDLHYYENQE | 2109 | 736 | 301 | 4.01 | 0.51 |  | 
Peroxiredoxin-1 (protein, UniProt Q06830 2-199, looked up) Peroxiredoxin-1: SSGNAKIGHPAPNFKATAVMPDGQFKDISLSDYKGKYVVFFFYPLDFTFVCPTEIIAFSDRAEEFKKLNCQVIGASVDSHFCHLAWVNTPKKQGGLGPMNIPLVSDPKRTIAQDYGVLKADEGISFRGLFIIDDKGILRQITVNDLPVGRSVDETLRLVQAFQFTDKHGEVCPAGWKPGSDTIKPDVQKSKEYFSKQK | 62705 | 33782 | 30663 |  |  | 0.53 | 2.55
